The list is a part of this screen's results and no random one: it gathers tests that were run many times, whatever their T/C, doses with no T/C, and many T/C values between a quarter and a half above the control. Other doses and runs of a compound stand elsewhere. T/C: endpoint of the treated group in % of that of the vehicle group. Some entries give survivors of the animals treated and no T/C: the source holds a T/C of zero for them, seemingly a mark for toxic or unscored doses. Some survivor counts are full or nearly so, which does not show that the dose was tolerated: the source hardly ever lists a survival T/C far under the control, and the zero likely stands for such cases as well. Counts of survivors are from the toxicity check (mostly the fifth day) where no day follows; animals may have died later. Schedule codes are those of the source, read here as Q, the interval in days (D) or hours (H), X, the number of doses. For survival time, the PubChem record calls one and a half times the control and up active, and a quarter to a half above the control has no call in these data; cut-offs in other NCI protocols can differ. Some T/C values carry the count of animals alive at the toxicity check (mostly the fifth day); without a count, all were alive then. Some entries were tested several times; their values stand side by side, smallest first.
Tested on: L1210 leukemia ip in BDF1 mice, survival T/C
Assay: NCI In Vivo Anticancer Drug Screen. Data for tumor model L1210 Leukemia (intraperitoneal) in B6D2F1 (BDF1) mice
Details: T/C endpoint: mean survival time, higher T/C = longer survival
[1] = dose: 200.0 mg/kg/injection, schedule: Q01DX009 (ip), vehicle: Klucel (hydroxypropylcellulose) (HPC)
[2] = dose: 200.0 mg/kg/injection, schedule: Q01DX009 (ip), vehicle: saline
[3] = dose: 400.0 mg/kg/injection, schedule: Q01DX009 (ip), vehicle: Klucel (hydroxypropylcellulose) (HPC)
[4] = dose: 50.0 mg/kg/injection, schedule: Q04DX002 (ip), vehicle: saline
[5] = dose: 100.0 mg/kg/injection, schedule: Q04DX002 (ip), vehicle: saline
[6] = dose: 200.0 mg/kg/injection, schedule: Q04DX002 (ip), vehicle: saline

SMILES: O=NN(CCCl)C(=O)NCC1CCC(CNC(=O)N(CCCl)N=O)CC1 (stereo not given)
- T/C (dose: 120.0 mg/kg/injection, schedule: Q01DX001 (ip), vehicle: carboxymethylcellulose (CMC)): 142 % of control
- T/C [1]: 137 % of control
- survivor count (dose: 600.0 mg/kg/injection, schedule: Q01DX009 (ip), vehicle: carboxymethylcellulose (CMC)): 5 of 6

SMILES: CCC[CH2][Sn]1([CH2]CCC)[O]C(=O)C2C(C(=O)[O]1)C1(Cl)C(Cl)=C(Cl)C2(Cl)C1(Cl)Cl (stereo not given)
- T/C (dose: 100.0 mg/kg/injection, schedule: Q01DX001 (ip), vehicle: saline): 125 % of control
- survivor count (dose: 150.0 mg/kg/injection, schedule: Q01DX001 (ip), vehicle: saline): 1 of 6
- survivor count (dose: 200.0 mg/kg/injection, schedule: Q01DX001 (ip), vehicle: saline): 2 of 4
- survivor count (dose: 400.0 mg/kg/injection, schedule: Q01DX001 (ip), vehicle: saline): 0 of 4

SMILES: CCCN(C(=O)CCl)c1ccccc1
- survivor count (dose: 100.0 mg/kg/injection, schedule: Q04DX002 (ip), vehicle: Klucel (hydroxypropylcellulose) (HPC)): 2 of 3
- survivor count (dose: 200.0 mg/kg/injection, schedule: Q04DX002 (ip), vehicle: Klucel (hydroxypropylcellulose) (HPC)): 1 of 3
- survivor count (dose: 400.0 mg/kg/injection, schedule: Q04DX002 (ip), vehicle: Klucel (hydroxypropylcellulose) (HPC)): 0 of 3

SMILES: CC(=O)Nc1cc(NC(C)=O)cc([N+](=O)[O-])c1
- survivor count [2]: 6 of 6
- survivor count (dose: 400.0 mg/kg/injection, schedule: Q01DX009 (ip), vehicle: saline): 2 of 6

SMILES: ClCC[N+]12CC[N+](CCCl)(CC1)C2
- T/C (dose: 50.0 mg/kg/injection, schedule: Q01DX009 (ip), vehicle: Klucel (hydroxypropylcellulose) (HPC)): 132 % of control
- T/C (dose: 100.0 mg/kg/injection, schedule: Q01DX009 (ip), vehicle: Klucel (hydroxypropylcellulose) (HPC)): 129 % of control
- T/C [1]: 134 % of control
- T/C (dose: 300.0 mg/kg/injection, schedule: Q01DX001 (ip), vehicle: saline): 143 % of control
- survivor count [3]: 0 of 6

SMILES: N#CC(C#N)=Cc1cccc2ccccc12
- survivor count [3]: 2 of 6

SMILES: CNC1(c2ccccc2)CC1
- survivor count (dose: 300.0 mg/kg/injection, schedule: Q04DX002 (ip), vehicle: saline): 1 of 3

SMILES: O=C(NC1CCCCC1)Oc1c(Cl)cc(Cl)c(Cl)c1[N+](=O)[O-]
- survivor count (dose: 200.0 mg/kg/injection, schedule: Q04DX002 (ip), vehicle: saline with Tween-80): 0 of 3
- survivor count (dose: 400.0 mg/kg/injection, schedule: Q04DX002 (ip), vehicle: saline with Tween-80): 0 of 3

SMILES: C[N+]1=C2CCCCCC2=C(N)CC1
- survivor count (dose: 100.0 mg/kg/injection, schedule: Q04DX003 (ip), vehicle: saline): 3 of 6
- survivor count (dose: 200.0 mg/kg/injection, schedule: Q04DX003 (ip), vehicle: saline): 0 of 6
- survivor count (dose: 400.0 mg/kg/injection, schedule: Q04DX003 (ip), vehicle: saline): 0 of 6

SMILES: CCc1ccccc1NC(=O)Nc1ccc(C(=O)O)cc1
- survivor count [3]: 1 of 6

SMILES: O=C(NCc1ccncc1)Nc1ccccc1Cl
- survivor count (dose: 400.0 mg/kg/injection, schedule: Q04DX002 (ip), vehicle: saline): 2 of 3

SMILES: CCCCCCCCCCCCCCCCN1CCCN(CCCCCCCCCCCCCCCC)CC1
- T/C [4]: 88, 91, 113 % of control
- survivor count [4]: 3 of 3
- T/C [5]: 91, 95, 100 % of control [5 of 6 alive]
- survivor count [5]: 3 of 3
- survivor count [2]: 6 of 6
- T/C [6]: 89, 91 [5 of 6 alive], 95 % of control
- survivor count [6]: 3 of 3

SMILES: O=[N+]([O-])c1cc(F)ccc1O
- survivor count [1]: 4 of 6
- survivor count (dose: 200.0 mg/kg/injection, schedule: Q04DX003 (ip), vehicle: Klucel (hydroxypropylcellulose) (HPC)): 4 of 6
- survivor count [3]: 1 of 6
- survivor count (dose: 400.0 mg/kg/injection, schedule: Q04DX003 (ip), vehicle: Klucel (hydroxypropylcellulose) (HPC)): 1 of 6
- survivor count (dose: 400.0 mg/kg/injection, schedule: Q04DX003 (ip), vehicle: saline with Tween-80): 3 of 6

SMILES: CCN(CC)CCOC(=O)C(S)(c1ccccc1)C1CCCCC1 (stereo not given)
- survivor count (dose: 300.0 mg/kg/injection, schedule: Q01DX001 (ip), vehicle: other): 2 of 6

SMILES: [O-][n+]1c(C(Cl)(Cl)Cl)cc(Cl)nc1Cl
- survivor count (dose: 400.0 mg/kg/injection, schedule: Q01DX001 (ip), vehicle: Klucel (hydroxypropylcellulose) (HPC)): 0 of 6

Source: PubChem BioAssay AID248 (DTP/NCI, 2004)
